Data taken from PMC12869240.
Results are given in words; binding and its absence hold for the method and conditions named. In cells and extracts the contact can be indirect. Some results given as binding are weak or reduced against the parent protein; the word gives no strength.

By UniProt entry, the sequences of proteins in these tests, tags left out. Residues count along the entry.
UniProt Q15418: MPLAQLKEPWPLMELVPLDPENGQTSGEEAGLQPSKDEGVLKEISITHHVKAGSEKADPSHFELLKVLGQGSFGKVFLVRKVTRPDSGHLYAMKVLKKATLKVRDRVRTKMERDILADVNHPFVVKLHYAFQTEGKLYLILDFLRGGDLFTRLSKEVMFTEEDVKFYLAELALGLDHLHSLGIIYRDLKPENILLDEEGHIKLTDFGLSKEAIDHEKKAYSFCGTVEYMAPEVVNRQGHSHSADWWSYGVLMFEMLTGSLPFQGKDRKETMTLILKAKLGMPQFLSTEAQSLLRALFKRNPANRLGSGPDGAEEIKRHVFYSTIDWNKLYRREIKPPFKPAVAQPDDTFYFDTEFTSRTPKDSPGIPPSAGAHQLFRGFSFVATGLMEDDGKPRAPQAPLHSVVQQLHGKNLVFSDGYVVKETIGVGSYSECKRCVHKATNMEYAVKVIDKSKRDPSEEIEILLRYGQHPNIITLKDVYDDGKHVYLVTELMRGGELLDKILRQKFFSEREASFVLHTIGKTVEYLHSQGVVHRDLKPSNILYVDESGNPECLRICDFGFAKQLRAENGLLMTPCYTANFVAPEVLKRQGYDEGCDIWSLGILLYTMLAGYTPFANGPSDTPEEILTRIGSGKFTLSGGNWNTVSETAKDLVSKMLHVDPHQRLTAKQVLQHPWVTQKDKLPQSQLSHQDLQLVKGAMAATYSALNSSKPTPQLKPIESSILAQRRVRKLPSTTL
UniProt Q9Y4C0, residues 28-1643: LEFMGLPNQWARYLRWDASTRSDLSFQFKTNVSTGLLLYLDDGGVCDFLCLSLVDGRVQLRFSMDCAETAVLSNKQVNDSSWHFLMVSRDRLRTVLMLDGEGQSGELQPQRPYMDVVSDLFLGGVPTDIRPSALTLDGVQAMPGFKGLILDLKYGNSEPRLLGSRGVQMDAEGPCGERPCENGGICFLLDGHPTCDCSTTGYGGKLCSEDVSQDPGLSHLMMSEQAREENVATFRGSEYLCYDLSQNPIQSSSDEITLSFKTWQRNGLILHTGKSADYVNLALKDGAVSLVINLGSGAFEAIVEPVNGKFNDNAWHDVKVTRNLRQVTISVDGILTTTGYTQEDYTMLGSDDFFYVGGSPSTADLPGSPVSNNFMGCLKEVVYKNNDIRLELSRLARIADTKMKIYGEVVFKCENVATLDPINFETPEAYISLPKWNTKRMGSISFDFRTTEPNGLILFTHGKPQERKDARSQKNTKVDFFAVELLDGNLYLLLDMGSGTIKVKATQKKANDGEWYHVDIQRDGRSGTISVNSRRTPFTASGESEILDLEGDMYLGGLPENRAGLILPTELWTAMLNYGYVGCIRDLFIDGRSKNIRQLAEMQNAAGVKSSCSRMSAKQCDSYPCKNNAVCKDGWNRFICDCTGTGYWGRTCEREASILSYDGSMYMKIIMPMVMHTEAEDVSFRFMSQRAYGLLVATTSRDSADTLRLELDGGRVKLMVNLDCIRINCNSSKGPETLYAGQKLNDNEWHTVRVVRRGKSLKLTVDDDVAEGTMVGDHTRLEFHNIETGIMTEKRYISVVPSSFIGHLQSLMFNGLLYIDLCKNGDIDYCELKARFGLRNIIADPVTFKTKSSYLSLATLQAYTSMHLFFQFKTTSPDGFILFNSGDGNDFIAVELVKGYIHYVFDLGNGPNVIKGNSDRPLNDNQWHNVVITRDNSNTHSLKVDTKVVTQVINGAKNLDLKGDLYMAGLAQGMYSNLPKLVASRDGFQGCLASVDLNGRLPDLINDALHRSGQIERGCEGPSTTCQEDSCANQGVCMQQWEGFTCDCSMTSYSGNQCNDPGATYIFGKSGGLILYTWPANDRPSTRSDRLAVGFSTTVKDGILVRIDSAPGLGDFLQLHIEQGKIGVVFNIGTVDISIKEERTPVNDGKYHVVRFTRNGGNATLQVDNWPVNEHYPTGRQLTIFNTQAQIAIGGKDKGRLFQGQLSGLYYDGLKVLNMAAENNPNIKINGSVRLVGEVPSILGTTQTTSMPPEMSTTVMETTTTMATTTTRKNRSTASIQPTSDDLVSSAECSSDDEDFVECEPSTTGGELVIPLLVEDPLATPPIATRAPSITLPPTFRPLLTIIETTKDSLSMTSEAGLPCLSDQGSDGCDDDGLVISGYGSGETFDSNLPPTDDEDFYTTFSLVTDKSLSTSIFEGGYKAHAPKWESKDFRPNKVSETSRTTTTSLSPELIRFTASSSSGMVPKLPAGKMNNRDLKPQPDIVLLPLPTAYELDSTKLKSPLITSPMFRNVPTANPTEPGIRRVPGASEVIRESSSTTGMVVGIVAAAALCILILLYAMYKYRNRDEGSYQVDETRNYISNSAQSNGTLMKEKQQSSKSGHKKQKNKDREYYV

What was measured:
[1] = target: Myc-tagged full-length RSK1 (UniProt Q15418); assay: co-IP; lysates of singly transfected HEK-293T cells mixed in vitro; Myc-RSK1 and His-caspase-3 lysates in equal amount with incremental Flag-NRXN3 lysate (or increasing His-caspase-3 lysate, Fig. S4G); anti-Myc immunoprecipitation and IB
[2] = target: Myc-tagged full-length RSK1 (UniProt Q15418); assay: co-IP; HEK-293T cells co-transfected with the tagged plasmids for 48 h; NP-40 lysis buffer; IP by anti-Myc, anti-His, anti-HA or as indicated, immunoblot; in some panels with co-expressed RSK1 and NRXN3
[3] = target: Flag-NRXN3 (neurexin-3) (UniProt Q9Y4C0); assay: co-IP; HEK-293T cell lysates, IP and IB of endogenous proteins; Flag-NRXN3-expressing HEK-293T lysates with anti-Flag antibody

Flag-NRXN3 (neurexin-3) (from UniProt Q9Y4C0 28-1643)
binding [1]: binds
binding [2]: binds

endogenous RSK1 in HEK-293T (from UniProt Q15418 1-735) (enzyme)
binding [3]: binds
